Measured values as given in article PMC7641331, “Ctf18-RFC and DNA Pol ϵ form a stable leading strand polymerase/clamp loader complex required for normal and perturbed DNA replication” (Nucleic Acids Research, 2019).

Key:
Assay in all cases: EMSA
[1] = tested on: Ctf18-1-8 Ctf18-RAA + Dcc1-3A V730R,R731A,K732A,K364A,R367A,R380A; settings: 250 nM protein, no Pol2CAT; EMSA: 25 mM HEPES pH 7.5, 60 mM KCl, 10% glycerol, 1 mM TCEP, 50 nM P1P2*, 20 min on ice, 6% Tris-glycine gel at 4 C; recombinant protein; label: 5' Cy3 on P1
[2] = tested on: Ctf18-1-8 Ctf18-RAA V730R,R731A,K732A; settings: 250 nM protein, no Pol2CAT; EMSA: 25 mM HEPES pH 7.5, 60 mM KCl, 10% glycerol, 1 mM TCEP, 50 nM P1P2*, 20 min on ice, 6% Tris-glycine gel at 4 C; recombinant protein; label: 5' Cy3 on P1
[3] = tested on: Ctf18-1-8 Dcc1-3A K364A,R367A,R380A; settings: 250 nM protein, no Pol2CAT; EMSA: 25 mM HEPES pH 7.5, 60 mM KCl, 10% glycerol, 1 mM TCEP, 50 nM P1P2*, 20 min on ice, 6% Tris-glycine gel at 4 C; recombinant protein; label: 5' Cy3 on P1
[4] = tested on: Ctf18-1-8 wild type (Ctf18 C-terminal fragment/Dcc1/Ctf8); settings: no Pol2CAT, Ctf18-1-8/DNA band shown at 2 uM, not at 250 nM; EMSA: 25 mM HEPES pH 7.5, 60 mM KCl, 10% glycerol, 1 mM TCEP, 50 nM P1P2*, 20 min on ice, 6% Tris-glycine gel at 4 C; recombinant protein; label: 5' Cy3 on P1

TAACCGCGTTC / CTCTTGAACGCGGTTA [P1P2* primer-template]
binding result [1]: no binding | binding result [2]: no binding | binding result [3]: no binding | binding result [4]: binds more weakly

Construct, isoform or probe ends are uncertain for at least one entry. For some of these results: No signal at the amounts used counts as a negative. For some of these results: At least one verdict was read from the data and is not stated in words by the source. For some of these results: Weaker means in comparison with the reference protein, sequence or condition of that experiment.
